Experiment [1] addresses recombinant GST-Pak6 (from pMW-GST-Pak6, E. coli) (human) (UniProt Q9NQU5). In words: pull-down; only the target purified.
The target of experiment [2] is GFP-Pak6 (pCB6-GFP-Pak6) (human) (UniProt Q9NQU5). In words: co-IP.

By UniProt entry, the sequences of proteins in these tests, tags left out.
UniProt Q9NQU5: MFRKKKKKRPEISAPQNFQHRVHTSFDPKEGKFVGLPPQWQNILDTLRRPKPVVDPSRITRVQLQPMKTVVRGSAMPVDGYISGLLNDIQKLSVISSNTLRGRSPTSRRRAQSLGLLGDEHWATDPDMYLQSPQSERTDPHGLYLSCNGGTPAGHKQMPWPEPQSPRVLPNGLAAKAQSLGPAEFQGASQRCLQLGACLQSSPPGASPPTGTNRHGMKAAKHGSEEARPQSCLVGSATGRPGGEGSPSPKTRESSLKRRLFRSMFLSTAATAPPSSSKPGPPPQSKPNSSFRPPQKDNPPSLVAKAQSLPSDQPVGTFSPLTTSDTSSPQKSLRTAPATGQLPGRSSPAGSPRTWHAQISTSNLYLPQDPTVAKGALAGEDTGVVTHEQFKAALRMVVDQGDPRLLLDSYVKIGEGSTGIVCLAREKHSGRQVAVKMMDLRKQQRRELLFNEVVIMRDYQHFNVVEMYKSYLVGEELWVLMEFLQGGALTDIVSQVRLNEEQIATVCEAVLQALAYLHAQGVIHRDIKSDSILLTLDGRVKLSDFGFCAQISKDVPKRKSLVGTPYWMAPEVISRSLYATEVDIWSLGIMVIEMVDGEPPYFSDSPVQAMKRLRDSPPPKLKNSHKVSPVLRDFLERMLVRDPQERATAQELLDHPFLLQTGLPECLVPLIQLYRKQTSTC

Results are given in words; binding and its absence hold for the method and conditions named. Binding seen in cells or lysates may run through a third protein. Some results given as binding are weak or reduced against the parent protein; the word gives no strength. For some assays here: Where a sequence is shown, tags or fusion partners need not be part of it.

B1: RhoD from HeLa cell lysates (protein, UniProt O00212 1-210)
chain: MTAAQAAGEEAPPGVRSVKVVLVGDGGCGKTSLLMVFADGAFPESYTPTVFERYMVNLQVKGKPVHLHIWDTAGQDDYDRLRPLFYPDASVLLLCFDVTSPNSFDNIFNRWYPEVNHFCKKVPIIVVGCKTDLRKDKSLVNKLRRNGLEPVTYHRGQEMARSVGAVAYLECSARLHDNVHAVFQEAAEVALSSRGRNFWRRITQGFCVVT
For B1, the binding entry in experiment [1] is reported as “binds”.

B2: Myc-RhoD (pCB6 Myc-RhoD) (protein, UniProt P97348 1-210)
chain: MNASQVAGEEAPQSGHSVKVVLVGDGGCGKTSLMMVFAKGAFPESYSPTVFERYNATLQMKGKPVHLQIWDTAGQDDYDRLRPLFYPDANVLLLCFDVTNPNSFDNVSNRWYPEVTHFCKGVPIIVVGCKIDLRKDKVLVNNLRKKRLEPVTYHRGHDMARSVGAVAYLECSARLHDNVEAVFQEAAEVALSSRRHNFWRRITQNCCLAT
In the case of B2, the binding entry in experiment [2] is given as “binds”.

The values are drawn from PMC5425256.
